Test results taken from paper PMC5540925.
For at least one entry, the source does not settle the construct or the ends of the probe. A negative result means that nothing was seen under these conditions. For part of these data: At least one verdict was read from the data and is not stated in words by the source. For part of these data: At least one result comes from cells or an extract, where the contact may be indirect. For part of these data: Protein sequences can lack the tags named with them.

Legend:
[1] = biological target: T1, Kaiso (overexpressed in HUVEC, nuclear extract) (UniProt Q86T24); experiment: competition with a labelled probe; conditions: Nonradioactive EMSA, 6-FAM probes, temperature not stated, protein in an extract, label: 6-FAM (probe), unlabelled as competitor
T1 sequence (looked up, limits assumed): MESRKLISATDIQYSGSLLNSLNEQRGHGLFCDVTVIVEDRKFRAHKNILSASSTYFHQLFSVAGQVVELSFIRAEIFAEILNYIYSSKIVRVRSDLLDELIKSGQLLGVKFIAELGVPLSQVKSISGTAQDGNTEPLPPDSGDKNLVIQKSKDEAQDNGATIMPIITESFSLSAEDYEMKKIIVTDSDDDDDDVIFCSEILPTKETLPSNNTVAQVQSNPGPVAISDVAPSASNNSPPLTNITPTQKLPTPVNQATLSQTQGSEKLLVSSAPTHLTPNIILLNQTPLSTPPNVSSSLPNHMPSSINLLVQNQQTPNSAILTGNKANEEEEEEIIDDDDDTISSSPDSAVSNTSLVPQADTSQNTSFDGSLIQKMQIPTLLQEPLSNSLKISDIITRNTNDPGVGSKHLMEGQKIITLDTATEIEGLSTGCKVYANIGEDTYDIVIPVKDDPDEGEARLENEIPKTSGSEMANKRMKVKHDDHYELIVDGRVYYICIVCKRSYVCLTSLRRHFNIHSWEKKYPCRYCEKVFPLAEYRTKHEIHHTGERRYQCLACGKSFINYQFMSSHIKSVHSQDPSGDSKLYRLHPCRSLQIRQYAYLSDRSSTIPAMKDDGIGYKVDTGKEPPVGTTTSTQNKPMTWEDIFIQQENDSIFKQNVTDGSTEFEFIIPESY

GST-Kaiso [2] = biological target: GST-Kaiso (UniProt Q86T24); experiment: competition with a labelled probe; conditions: Nonradioactive EMSA, 6-FAM probes, temperature not stated, commercial protein, protein details: GST, label: 6-FAM (probe), unlabelled as competitor
[3] = biological target: T1, Kaiso (overexpressed in HUVEC, nuclear extract); experiment: EMSA; conditions: Nonradioactive EMSA, 6-FAM probes, temperature not stated, protein in an extract, label: 6-FAM (probe), unlabelled as competitor
GST-Kaiso [4] = biological target: GST-Kaiso (UniProt Q86T24); experiment: EMSA; conditions: Nonradioactive EMSA, 6-FAM probes, temperature not stated, commercial protein, protein details: GST, label: 6-FAM (probe), unlabelled as competitor
[5] = unlabelled competitor vs FAM-N1
[6] = unlabelled competitor vs FAM-N5
[7] = unlabelled competitor vs FAM-N7

Sequence | binding result [1, 5] | binding result (GST-Kaiso [2]; [5]) | binding result [3] | binding result (GST-Kaiso [4]) | binding result ([3]; supershift with anti-Kaiso) | binding result (GST-Kaiso [4]; supershift with anti-GST) | binding result [1, 6] | binding result (GST-Kaiso [2]; [6]) | binding result [1, 7] | binding result (GST-Kaiso [2]; [7])
AAATTTCCAACATCTCATGC (double strand) [BCL2 -193 KBS mutant probe (3709-MU)] | no binding | no binding | no binding | no binding | – | – | – | – | – | –
AAATTTCCTGCATCTCATGC (double strand) [BCL2 -193 KBS WT probe (3709-WT)] | binds | binds | – | – | binds | binds | – | – | – | –
GGGTCATCCAATGAGAGAGC (double strand) [BIK -75 KBS mutant probe] | – | – | no binding | no binding | – | – | no binding | no binding | – | –
GGGTCATCCTGTGAGAGAGC (double strand) [BIK -75 KBS WT probe] | – | – | – | – | binds | binds | binds | binds | – | –
TAGGGGTCCAGTCATATGCT (double strand) [BIK -36 KBS WT probe] | – | – | – | – | binds | binds | – | – | binds | binds
TAGGGGTGAAGTCATATGCT (double strand) [BIK -36 KBS mutant probe] | – | – | no binding | no binding | – | – | – | – | no binding | no binding
